Values from PubChem BioAssay AID1259303 (Sanger Institute, 2017)
Assay: 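Which silenced kinases add to BYL719, cetuximab or trametinib effects in colorectal cancer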 (follow-up of hits). Cell system: human COLO320HSR colorectal cancer cells. Reagent: single siRNA against human genes. Challenge: anchor drug BYL719 (1 µM), cetuximab (5 µg/ml) or trametinib (10 nM), or DMSO vehicle alone. Measurement: 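Synergy of each knock-down with BYL719 (1 µM), cetuximab (5 µg/ml) or trametinib (10 nM) versus drug alone, plus mean viability normalised to non-targeting pool 2 siRNA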. Reading the numbers: synergy score with BYL719: higher = stronger combined killing with BYL719; synergy score with cetuximab: higher = stronger combined killing with cetuximab; synergy score with trametinib: higher = stronger combined killing with trametinib. Rule for the call: 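a knock-down counts as active when any of the three drug synergy scores exceeds 0.10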. Meaning of the calls: active = synergy with at least one drug; inactive = no synergy found.
Here is one part, drawn at random, of 160 reagents tested. 11 of them (6.9%) were called active. 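Viability capped at 1; how the synergy score is calculated is not stated; four separate siRNAs target each gene.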 Unmarked entries are inactive. Reagents against one gene are numbered here. Not all columns of the deposit are shown. Not stated in the record: the amount of reagent, the time to read-out.

What did the screen give for MAPK4 (GeneID 5596) #1?
synergy score with BYL719: -0.0357; synergy score with cetuximab: -0.014; synergy score with trametinib: -0.014

With MAPK4 (GeneID 5596) #2, what was measured?
synergy score with BYL719: 0.00136; synergy score with cetuximab: -0.124; synergy score with trametinib: -0.0825

For MAPK4 (GeneID 5596) #3, what was measured?
synergy score with BYL719: -0.0148; synergy score with cetuximab: 0.0589; synergy score with trametinib: 0

What is on record for MAPK4 (GeneID 5596) #4?
synergy score with BYL719: -0.211; synergy score with cetuximab: -0.0955; synergy score with trametinib: -0.163

How did the screen score GUCY2D (GeneID 3000) #1?
synergy score with BYL719: -0.229; synergy score with cetuximab: -0.178; synergy score with trametinib: -0.217

What did the screen give for GUCY2D (GeneID 3000) #2?
synergy score with BYL719: -0.0646; synergy score with cetuximab: -0.0829; synergy score with trametinib: -0.153

With GUCY2D (GeneID 3000) #3, what was measured?
synergy score with BYL719: -0.0859; synergy score with cetuximab: 0.0803; synergy score with trametinib: -0.102

For GUCY2D (GeneID 3000) #4, what was measured?
synergy score with BYL719: -0.236; synergy score with cetuximab: -0.198; synergy score with trametinib: -0.198

What is on record for PRAG1 (GeneID 157285) #1?
synergy score with BYL719: 0.0638; synergy score with cetuximab: 0.0387; synergy score with trametinib: -0.288

What did the screen give for PRAG1 (GeneID 157285) #2?
synergy score with BYL719: 0.0962; synergy score with cetuximab: 0.0124; synergy score with trametinib: -0.031

What did the screen give for PRAG1 (GeneID 157285) #3?
synergy score with BYL719: -0.0578; synergy score with cetuximab: -0.198; synergy score with trametinib: -0.182

For PRAG1 (GeneID 157285) #4, how do the results read?
synergy score with BYL719: 0.11 (active); synergy score with cetuximab: -0.0958; synergy score with trametinib: -0.2

For CRIM1 (GeneID 51232) #1, what does the deposit list?
synergy score with BYL719: -0.0536; synergy score with cetuximab: -0.109; synergy score with trametinib: -0.129

With CRIM1 (GeneID 51232) #2, what does the deposit list?
synergy score with BYL719: -0.303; synergy score with cetuximab: 0.0691; synergy score with trametinib: 0

With CRIM1 (GeneID 51232) #3, what was measured?
synergy score with BYL719: 0.125 (active); synergy score with cetuximab: -0.0153; synergy score with trametinib: -0.0489

How did the screen score CRIM1 (GeneID 51232) #4?
synergy score with BYL719: -0.0595; synergy score with cetuximab: 0.00712; synergy score with trametinib: -0.133
